Earlier results as cited in patent publication US20260094676A1, “METHOD AND APPARATUS FOR PREDICTING DRUG BIOAVAILABILITY” (LIVERPOOL JOHN MOORES UNIVERSITY, priority 2022, published 2026).
The name of at least one read-out is uncertain.

Details: concomitant intake of kolanut with halofantrine; cited from earlier work

CCCCN(CCCC)CCC(O)c1cc2c(Cl)cc(Cl)cc2c2cc(C(F)(F)F)ccc12 (stereo not shown) [halofantrine]
AUC, effect of concomitant kolanut: significantly decreased
